For at least one compound, name, drawing or mass did not settle the structure.
Tests used:
[1] = tested on: collagen induced male DBA/1 arthritic mice; assay: Collagen-induced rheumatoid arthritis model, clinical arthritis score; format: in vivo, mouse; details: Dexamethasone 1 mg/kg IP once daily (Group B)
[2] = tested on: TNF production from human peripheral blood mononuclear cells (PBMC); assay: TNF production from PBMC stimulated with LPS, LTA, PGN or Pam3CSK4, 24 h, Cytometric Bead Array; format: cell-based; details: Table 13
Protocol: Peripheral blood was drawn from healthy volunteers (with approval from the relevant ethical committee in Denmark). Heparinized blood was diluted 1/1 v/v with RPMI and were subjected to Ficoll density centrifugation within 2 h of drawing. Plasma was collected from the top from individual donors and was kept on ice until it was used at 2% in the culture medium (autologous culture medium). Isolated PBMC were resuspended in autologous culture medium and seeded in 96-well culture plates with 255.000 cells per well in a total of 200 μl. […] Viability was measured by Alamar Blue (Biosource, DALL 1100) in all experiments and in some cases also by MTS (Promega) according to manufacturer's instruction and was in some experiments also judged by counting of the cells by a Nucleocounter.
Cytokine production in supernatants was measured by flow cytometry with a human inflammation cytometric bead array (CBA) according to manufacturer's instructions (BD) on a FACSarray flow cytometer. The following cytokines were measured: IL-8, IL-1β, IL-10, TNF, IL-12 p70, IL-6. In some experiments, cytokines were measured by ELISA kits from R&D systems (IL-10, TNF-α, IL-1β) according to the manufacturer' instruction.
All experiments were performed at least twice, with representative results shown. The data presented are expressed as mean plus/minus standard deviation (SD). […]

## C[C@@H]1C[C@H]2[C@@H]3CCC4=CC(=O)C=C[C@]4(C)[C@@]3(F)[C@@H](O)C[C@]2(C)[C@@]1(O)C(=O)CO [Dexamethasone, reference compound]
[1]
  Arthritic score compared to vehicle treated group: significantly lower arthritic score compared to the vehicle treated group from study day 26 until the end of the study
[2]
  TNF inhibition (positive controls): effectively downregulated TNF production
